The assay has as its target T1, FLAG-tagged murine RNase L, expressed from a plasmid (mouse) (UniProt Q05921).
T1 sequence: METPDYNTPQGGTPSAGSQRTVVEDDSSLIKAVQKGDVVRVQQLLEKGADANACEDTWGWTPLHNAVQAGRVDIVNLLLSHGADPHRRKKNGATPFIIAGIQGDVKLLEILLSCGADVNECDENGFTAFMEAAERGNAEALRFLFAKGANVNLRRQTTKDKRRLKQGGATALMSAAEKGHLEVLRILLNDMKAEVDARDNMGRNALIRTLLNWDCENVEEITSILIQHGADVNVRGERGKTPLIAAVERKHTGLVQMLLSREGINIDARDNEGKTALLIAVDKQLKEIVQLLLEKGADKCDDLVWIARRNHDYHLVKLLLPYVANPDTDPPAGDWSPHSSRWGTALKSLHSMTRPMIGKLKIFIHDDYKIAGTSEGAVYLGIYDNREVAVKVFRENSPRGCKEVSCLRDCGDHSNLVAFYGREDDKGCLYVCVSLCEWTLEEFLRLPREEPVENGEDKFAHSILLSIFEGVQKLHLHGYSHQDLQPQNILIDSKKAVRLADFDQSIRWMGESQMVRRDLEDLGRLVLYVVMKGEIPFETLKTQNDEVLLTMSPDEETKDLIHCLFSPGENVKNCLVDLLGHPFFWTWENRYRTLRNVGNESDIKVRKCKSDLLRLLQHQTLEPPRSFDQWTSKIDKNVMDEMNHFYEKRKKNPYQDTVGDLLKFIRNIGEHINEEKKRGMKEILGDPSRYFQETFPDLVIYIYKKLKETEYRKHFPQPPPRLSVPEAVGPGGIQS
As to the kind of experiment: co-IP; lysates of 293/T cells cotransfected with HA-L* and FLAG-RNase L constructs (murine, human or chimeric); IP with anti-FLAG and anti-HA, protein A/G resin, 4°C; lysis buffer Tris-HCl 50 mM pH 8, NaCl 100 mM, NP40 0.5%, EDTA 2 mM; immunoblot. For orientation: In western blotting, separated proteins are transferred to a membrane and probed.

Results are given in words; binding and its absence hold for the method and conditions named. In cells and extracts the contact can be indirect. Binding can be weak; no strength is given. Tags and fused reporters may be left off the sequences shown.

As to “HA-tagged L* protein of Theiler's murine encephalomyelitis virus, expressed from a plasmid”, the binding result is on record as “binds”.
